Assay: CO diffusion from meat surface into the core during preservation
Conditions: nine pound calf meat piece, 5° C.

[C-]#[O+] [CO, carbon monoxide]
diffusion of CO from the surface to the core (ten days, cut in the middle of the sample): nearly complete diffusion or saturation
meat radius (from surface to core) changed in color from dark to bright red (100% CO about 1.1 atmosphere, after three days): About 30%

Source: patent publication US20040009273A1, “Method for the long-term preservation of meat and the meat process thereby” (priority 1996, published 2004)
